From PMC5428976

Amino acid sequences for entries named in this document (tags omitted). A change or cut given only in a name is not applied to a line headed by its entry.
UniProt Q8TEB1: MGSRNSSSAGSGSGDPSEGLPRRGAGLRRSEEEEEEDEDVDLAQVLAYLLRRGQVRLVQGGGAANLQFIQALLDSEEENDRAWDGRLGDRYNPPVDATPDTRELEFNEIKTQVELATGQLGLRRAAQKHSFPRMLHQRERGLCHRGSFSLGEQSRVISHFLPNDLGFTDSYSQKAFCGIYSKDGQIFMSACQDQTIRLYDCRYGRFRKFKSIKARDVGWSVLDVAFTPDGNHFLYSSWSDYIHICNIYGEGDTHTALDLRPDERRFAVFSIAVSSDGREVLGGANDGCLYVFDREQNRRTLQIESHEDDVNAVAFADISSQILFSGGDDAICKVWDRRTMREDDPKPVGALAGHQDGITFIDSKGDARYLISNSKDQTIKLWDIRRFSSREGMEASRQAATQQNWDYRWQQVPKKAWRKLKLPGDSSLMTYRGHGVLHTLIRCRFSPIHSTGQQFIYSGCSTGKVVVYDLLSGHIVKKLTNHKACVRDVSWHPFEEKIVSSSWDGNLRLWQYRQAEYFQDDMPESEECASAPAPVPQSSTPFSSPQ

Columns and labels:
Experiment in all cases: co-IP; HEK-293T cells transiently transfected, 24 h, no MG-132; lysed in 0.5% CHAPS buffer (10mM Tris/Cl pH 7.5, 150mM NaCl, 0.5mM EDTA); GFP:WDR23 (or GFP) precipitated with magnetic agarose GFP Trap beads, 1 hour at 4°C, three washes; Western blot; some cells treated with 250μM H2O2
[1] = molecular target: GFP:WDR23 isoform 1 (human), Q8TEB1; conditions: remark: other sources report otherwise
[2] = molecular target: GFP:WDR23 isoform 2 (H306Y) (human) (UniProt Q8TEB1)
[3] = molecular target: GFP:WDR23 isoform 2 (human) (UniProt Q8TEB1)
[4] = molecular target: GFP:WDR23 isoform 1 (H306Y) (human)

Binder | binding [1] | binding [2] | binding [3] | binding [4]
HA-NRF2, Q16236 1-605 (protein) MMDLELPPPGLPSQQDMDLIDILWRQDIDLGVSREVFDFSQRRKEYELEKQKKLEKERQEQLQKEQEKAFFAQLQLDEETGEFLPIQPAQHIQSETSGSANYSQVAHIPKSDALYFDDCMQLLAQTFPFVDDNEVSSATFQSLVPDIPGHIESPVFIATNQAQSPETSVAQVAPVDLDGMQQDIEQVWEELLSIPELQCLNIENDKLVETTMVPSPEAKLTEVDNYHFYSSIPSMEKEVGNCSPHFLNAFEDSFSSILSTEDPNQLTVNSLNSDATVNTDFGDEFYSAFIAEPSISNSMPSPATLSHSLSELLNGPIDVSDLSLCKAFNQNHPESTAEFNDSDSGISLNTSPSVASPEHSVESSSYGDTLLGLSDSEVEELDSAPGSVKQNGPKTPVHSSGDMVQPLSPSQGQSTHVHDAQCENTPEKELPVSPGHRKTPFTKDKHSSRLEAHLTRDELRAKALHIPFPVEKIINLPVVDFNEMMSKEQFNEAQLALIRDIRRRGKNKVAAQNCRKRKLENIVELEQDLDHLKDEKEKLLKEKGENDKSLHLLKKQLSTLYLEVFSMLRDEDGKPYSPSEYSLQQTRDGNVFLVPKSKKPDVKKN | binds |  |  | 
HA-NRF2 (protein, UniProt Q16236 1-605) MMDLELPPPGLPSQQDMDLIDILWRQDIDLGVSREVFDFSQRRKEYELEKQKKLEKERQEQLQKEQEKAFFAQLQLDEETGEFLPIQPAQHIQSETSGSANYSQVAHIPKSDALYFDDCMQLLAQTFPFVDDNEVSSATFQSLVPDIPGHIESPVFIATNQAQSPETSVAQVAPVDLDGMQQDIEQVWEELLSIPELQCLNIENDKLVETTMVPSPEAKLTEVDNYHFYSSIPSMEKEVGNCSPHFLNAFEDSFSSILSTEDPNQLTVNSLNSDATVNTDFGDEFYSAFIAEPSISNSMPSPATLSHSLSELLNGPIDVSDLSLCKAFNQNHPESTAEFNDSDSGISLNTSPSVASPEHSVESSSYGDTLLGLSDSEVEELDSAPGSVKQNGPKTPVHSSGDMVQPLSPSQGQSTHVHDAQCENTPEKELPVSPGHRKTPFTKDKHSSRLEAHLTRDELRAKALHIPFPVEKIINLPVVDFNEMMSKEQFNEAQLALIRDIRRRGKNKVAAQNCRKRKLENIVELEQDLDHLKDEKEKLLKEKGENDKSLHLLKKQLSTLYLEVFSMLRDEDGKPYSPSEYSLQQTRDGNVFLVPKSKKPDVKKN |  | binds | binds | binds

No constants are given. Whether binding was seen depends on the method and setting. Binding seen in cells or lysates may run through a third protein. A result given as binding can be weak or reduced; the word gives no strength. Where a sequence is shown, tags or fusion partners need not be part of it.
